PubChem BioAssay AID602196 | INSERM | 2012
The deposit covers about 23,000 reagents; below is a part drawn at random. In the full data, 455 (2%) got an active call. 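Active includes both protection and sensitisation; some change values fall well beyond the stated -50 to +50 range.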 Further read-outs or replicates are left out here. Not given: the amount of reagent.

- Aim: 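Modifiers of cisplatin sensitivity in A549 cells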
- Cell system: human A549 lung cancer cells
- Knock-down reagent: siRNA pair against human genes
- Duration: 48 h transfection before cisplatin; time from cisplatin to read-out not stated
- Challenge: cisplatin at a dose killing half of control-siRNA cells; exact dose and duration not given
- Measurement: 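Cisplatin cell death as a shift from the 50% death seen with control siRNA; siRNAs toxic or growth-blocking alone scored 0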
- Reading the numbers: two-siRNA summed score (-2 to +2): higher = both siRNAs protect from cisplatin killing; -2 means both sensitise
- Rule for the call: 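Each siRNA scores 0 if harmful alone by LDH or WST-1, otherwise +1 if it reduces and -1 if it increases cisplatin killing; a gene is active when both siRNAs agree (sum +2 or -2)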
- Meaning of the calls: active = both siRNAs shift cisplatin killing the same way; inactive = no consistent shift, or siRNA harmful alone

no.	Gene	two-siRNA summed score (-2 to +2)	Outcome
1	HTR1D	0	inactive
2	LOC401476	1	inactive
3	CHST12	0	inactive
4	SMARCD3	0	inactive
5	VSIG10L2	0	inactive
6	CPSF3	0	inactive
7	SLC39A4	0	inactive
8	BEX3	0	inactive
9	PRKCQ-AS1	0	inactive
10	ERO1B	0	inactive
11	LOC442220	1	inactive
12	RETN	-1	inactive
13	FNDC7	0	inactive
14	LOC284611	0	inactive
15	IDH2	1	inactive
16	LOC148756	0	inactive
17	UBALD2	1	inactive
18	VGLL3	0	inactive
19	PIP4K2C	1	inactive
20	RSPH10B	0	inactive
21	TMEM51-AS1	0	inactive
22	APLN	0	inactive
23	MGC4767	0	inactive

Records listed so far whose gene name begins with C or c (2):
Gene	two-siRNA summed score (-2 to +2)	Outcome
CHST12	0	inactive
CPSF3	0	inactive
